Laboratory results: publication PMC6673703, “14-3-3 signal adaptor and scaffold proteins mediate GPCR trafficking” (Scientific Reports, 2019)
These are yes or no findings as the source states them, for the method shown. Some binding calls cover weakened binding; strength is not graded here. For some of these results: Sequences can lack the tags named with a protein. One block for each molecule: values may come before it.

Amino acid sequences for entries named in this document (tags omitted). A change or cut given only in a name is not applied to a line headed by its entry.
UniProt P35372: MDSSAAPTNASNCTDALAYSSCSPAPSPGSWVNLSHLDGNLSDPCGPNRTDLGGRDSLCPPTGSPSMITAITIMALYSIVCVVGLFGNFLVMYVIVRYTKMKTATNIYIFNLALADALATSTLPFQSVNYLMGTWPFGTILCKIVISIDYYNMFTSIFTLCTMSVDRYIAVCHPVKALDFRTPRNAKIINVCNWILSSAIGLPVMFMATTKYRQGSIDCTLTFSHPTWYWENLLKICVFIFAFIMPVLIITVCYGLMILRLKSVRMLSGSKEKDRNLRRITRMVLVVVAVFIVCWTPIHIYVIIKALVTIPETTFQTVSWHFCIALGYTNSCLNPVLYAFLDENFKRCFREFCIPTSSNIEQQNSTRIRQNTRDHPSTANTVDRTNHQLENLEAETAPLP
UniProt P21453: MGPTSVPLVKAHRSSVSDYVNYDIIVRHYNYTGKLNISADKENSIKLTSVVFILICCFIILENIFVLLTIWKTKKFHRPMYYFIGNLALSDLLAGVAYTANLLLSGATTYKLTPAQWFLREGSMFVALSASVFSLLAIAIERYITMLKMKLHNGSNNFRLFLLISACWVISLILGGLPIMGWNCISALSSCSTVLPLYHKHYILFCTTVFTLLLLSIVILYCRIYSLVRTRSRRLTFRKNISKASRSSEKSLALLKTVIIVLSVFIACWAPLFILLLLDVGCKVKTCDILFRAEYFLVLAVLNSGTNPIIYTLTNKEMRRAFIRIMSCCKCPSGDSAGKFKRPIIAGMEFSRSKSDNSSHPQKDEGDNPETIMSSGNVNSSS
UniProt P08912: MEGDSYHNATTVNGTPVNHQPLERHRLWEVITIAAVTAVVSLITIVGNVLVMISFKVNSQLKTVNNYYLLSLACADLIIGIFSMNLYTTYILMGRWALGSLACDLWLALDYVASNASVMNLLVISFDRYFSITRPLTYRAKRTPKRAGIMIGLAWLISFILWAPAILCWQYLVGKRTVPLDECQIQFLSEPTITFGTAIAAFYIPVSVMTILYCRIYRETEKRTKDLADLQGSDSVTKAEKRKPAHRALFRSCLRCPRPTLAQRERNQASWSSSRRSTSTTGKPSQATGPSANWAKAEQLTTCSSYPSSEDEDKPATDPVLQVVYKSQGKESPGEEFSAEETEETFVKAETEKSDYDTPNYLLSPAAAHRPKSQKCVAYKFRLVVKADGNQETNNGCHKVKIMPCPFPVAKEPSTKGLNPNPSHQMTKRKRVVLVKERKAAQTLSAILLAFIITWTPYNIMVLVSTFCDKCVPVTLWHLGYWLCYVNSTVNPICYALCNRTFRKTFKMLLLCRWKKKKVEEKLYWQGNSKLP
UniProt P21918: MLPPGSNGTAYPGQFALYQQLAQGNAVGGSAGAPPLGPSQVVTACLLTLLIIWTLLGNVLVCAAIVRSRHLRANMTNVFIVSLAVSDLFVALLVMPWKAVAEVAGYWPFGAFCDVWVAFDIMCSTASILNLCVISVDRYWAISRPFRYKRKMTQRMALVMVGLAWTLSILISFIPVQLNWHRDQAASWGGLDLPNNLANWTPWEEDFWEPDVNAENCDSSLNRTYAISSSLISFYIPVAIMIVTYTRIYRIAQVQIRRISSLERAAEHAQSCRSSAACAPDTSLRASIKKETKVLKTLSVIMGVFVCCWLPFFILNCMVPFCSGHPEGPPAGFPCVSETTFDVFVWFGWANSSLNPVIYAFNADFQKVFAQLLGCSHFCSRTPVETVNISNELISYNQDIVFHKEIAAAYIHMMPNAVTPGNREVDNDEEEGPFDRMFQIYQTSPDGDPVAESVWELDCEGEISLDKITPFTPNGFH
UniProt P32121: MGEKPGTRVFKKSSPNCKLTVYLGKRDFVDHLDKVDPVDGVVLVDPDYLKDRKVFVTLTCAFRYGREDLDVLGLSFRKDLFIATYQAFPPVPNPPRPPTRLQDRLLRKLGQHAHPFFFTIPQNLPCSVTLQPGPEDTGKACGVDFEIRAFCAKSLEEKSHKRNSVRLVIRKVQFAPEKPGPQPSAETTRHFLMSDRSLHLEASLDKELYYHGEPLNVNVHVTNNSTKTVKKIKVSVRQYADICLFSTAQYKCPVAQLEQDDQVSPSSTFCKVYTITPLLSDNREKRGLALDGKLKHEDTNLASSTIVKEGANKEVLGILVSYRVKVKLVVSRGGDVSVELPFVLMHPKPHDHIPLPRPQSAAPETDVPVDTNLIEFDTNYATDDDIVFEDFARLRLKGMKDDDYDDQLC

Tests used:
[1] = biological target: μ-opioid receptor (MOR1)-TEV (human) (UniProt P35372); assay: LinkLight assay (TEV protease on one partner cuts permuted luciferase on the other; luminescence end point); HEK293 cells stably expressing GPCR-TEV and β-arrestin-2-pLuc; serum-free DMEM, serial 1:3 dilution of ligand, 37 °C, 120 min unless otherwise specified; agonist-induced signals
[2] = biological target: sphingosine-1-phosphate receptor 1 (S1PR1)-TEV (human) (UniProt P21453); assay: as above
[3] = biological target: muscarinic cholinergic receptor 5 (CHRM5)-TEV (human) (UniProt P08912); assay: as above
[4] = biological target: DRD5(S464A)-TEV (human) (UniProt P21918); assay: LinkLight assay (TEV protease on one partner cuts permuted luciferase on the other; luminescence end point); DRD5-TEV wild type or mutant plasmids transiently transfected into 14-3-3-pLuc (results: 14-3-3γ-pLuc) HEK293 host cells; with or without 10 μM dopamine, four hours, 37 °C
[5] = biological target: DRD5(T443A)-TEV (human) (UniProt P21918); assay: as above
[6] = biological target: wild type DRD5-TEV (dopamine receptor 5) (human) (UniProt P21918); assay: as above
[7] = biological target: DRD5(S260A-S261A)-TEV (human) (UniProt P21918); assay: as above

binding [1]: binds
binding [2]: binds
binding [3]: binds
Molecule: β-arrestin-2-permuted luciferase (β-arr-2-pLuc) (from UniProt P32121 1-409)

binding [4]: binds
binding [5]: no binding
binding [6]: binds
binding [7]: binds
B1: 14-3-3γ-pLuc (protein, UniProt P61981 1-247)
chain: MVDREQLVQKARLAEQAERYDDMAAAMKNVTELNEPLSNEERNLLSVAYKNVVGARRSSWRVISSIEQKTSADGNEKKIEMVRAYREKIEKELEAVCQDVLSLLDNYLIKNCSETQYESKVFYLKMKGDYYRYLAEVATGEKRATVVESSEKAYSEAHEISKEHMQPTHPIRLGLALNYSVFYYEIQNAPEQACHLAKTAFDDAIAELDTLNEDSYKDSTLIMQLLRDNLTLWTSDQQDDDGGEGNN
